Results are given in words; binding and its absence hold for the method and conditions named. Some binding calls cover weakened binding; strength is not graded here.
Target: novel protein PN9667 (fragment not stated) (human)
Test: yeast two-hybrid

- binding: binds
B1: alpha-2 catenin (bait, fragment not stated) (protein, human, UniProt P26232 1-953, looked up)
chain: MTSATSPIILKWDPKSLEIRTLTVERLLEPLVTQVTTLVNTSNKGPSGKKKGRSKKAHVLAASVEQATQNFLEKGEQIAKESQDLKEELVAAVEDVRKQGETMRIASSEFADDPCSSVKRGTMVRAARALLSAVTRLLILADMADVMRLLSHLKIVEEALEAVKNATNEQDLANRFKEFGKEMVKLNYVAARRQQELKDPHCRDEMAAARGALKKNATMLYTASQAFLRHPDVAATRANRDYVFKQVQEAIAGISNAAQATSPTDEAKGHTGIGELAAALNEFDNKIILDPMTFSEARFRPSLEERLESIISGAALMADSSCTRDDRRERIVAECNAVRQALQDLLSEYMNNTGRKEKGDPLNIAIDKMTKKTRDLRRQLRKAVMDHISDSFLETNVPLLVLIEAAKSGNEKEVKEYAQVFREHANKLVEVANLACSISNNEEGVKLVRMAATQIDSLCPQVINAALTLAARPQSKVAQDNMDVFKDQWEKQVRVLTEAVDDITSVDDFLSVSENHILEDVNKCVIALQEGDVDTLDRTAGAIRGRAARVIHIINAEMENYEAGVYTEKVLEATKLLSETVMPRFAEQVEVAIEALSANVPQPFEENEFIDASRLVYDGVRDIRKAVLMIRTPEELEDDSDFEQEDYDVRSRTSVQTEDDQLIAGQSARAIMAQLPQEEKAKIAEQVEIFHQEKSKLDAEVAKWDDSGNDIIVLAKQMCMIMMEMTDFTRGKGPLKNTSDVINAAKKIAEAGSRMDKLARAVADQCPDSACKQDLLAYLQRIALYCHQLNICSKVKAEVQNLGGELIVSGTGVQSTFTTFYEVDCDVIDGGRASQLSTHLPTCAEGAPIGSGSSDSSMLDSATSLIQAAKNLMNAVVLTVKASYVASTKYQKVYGTAAVNSPVVSWKMKAPEKKPLVKREKPEEFQTRVRRGSQKKHISPVQALSEFKAMDSF

Source: US20050222029A1
